# Source: article PMC10011588, “Conformational transitions and allosteric modulation in a heteromeric glycine receptor” (Nature Communications, 2023)
# No constants are given. Whether binding was seen depends on the method and setting. Some binding calls cover weakened binding; strength is not graded here.
# Target: zebrafish glycine receptor α1 subunit (ZF-α1GlyR), full length (zebrafish) (UniProt O93430)
# Experiment: cryo-EM structure; αβGlyR-Geph-E sample co-expressed in Sf9 and co-purified in DDM, vitrified on graphene-oxide grids with 100 µM strychnine, 1 mM glycine, or 1 mM glycine and 20 µM ivermectin; no fiduciary marker
binder,measurement,value
"zebrafish glycine receptor α1 subunit (ZF-α1GlyR), full length (receptor, UniProt O93430 25-444, looked up, N-glycan at N62, glycine receptor α1 subunit, zebrafish, NCBI NP_571477.1, codon-optimised full-length gene; Four copies stand in the αβGlyR heteropentamer (4α:1β); The full-length gene was expressed; also called αGlyR; GlyRα1; source: Sf9 (ExpiSf9) cells, baculovirus (pFastBacDual, p10 promoter), co-expressed with βBGlyR and Geph-E; not shown: 8x His (after a thrombin site LVPRGS), C-terminal, kept) ARKAASPMPPSEFLDKLMGKVSGYDARIRPNFKGPPVNVTCNIFINSFGSIAETTMDYRVNIFLRQQWNDPRLAYSEYPDDSLDLDPSMLDSIWKPDLFFANEKGANFHEVTTDNKLLRISKNGNVLYSIRITLVLACPMDLKNFPMDVQTCIMQLESFGYTMNDLIFEWDEKGAVQVADGLTLPQFILKEEKDLRYCTKHYNTGKFTCIEARFHLERQMGYYLIQMYIPSLLIVILSWVSFWINMDAAPARVGLGITTVLTMTTQSSGSRASLPKVSYVKAIDIWMAVCLLFVFSALLEYAAVNFIARQHKELLRFQRRRRHLKEDEAGDGRFSFAAYGMGPACLQAKDGMAIKGNNNNAPTSTNPPEKTVEEMRKLFISRAKRIDTVSRVAFPLVFLIFNIFYWITYKIIRSEDIHKQ",binding,binds
